The target of test [1] is T1, His-tag recombinant phosphoglycerate kinase (Pgk) (E. coli ExPEC strain RS218) (UniProt P0A799).
T1 sequence: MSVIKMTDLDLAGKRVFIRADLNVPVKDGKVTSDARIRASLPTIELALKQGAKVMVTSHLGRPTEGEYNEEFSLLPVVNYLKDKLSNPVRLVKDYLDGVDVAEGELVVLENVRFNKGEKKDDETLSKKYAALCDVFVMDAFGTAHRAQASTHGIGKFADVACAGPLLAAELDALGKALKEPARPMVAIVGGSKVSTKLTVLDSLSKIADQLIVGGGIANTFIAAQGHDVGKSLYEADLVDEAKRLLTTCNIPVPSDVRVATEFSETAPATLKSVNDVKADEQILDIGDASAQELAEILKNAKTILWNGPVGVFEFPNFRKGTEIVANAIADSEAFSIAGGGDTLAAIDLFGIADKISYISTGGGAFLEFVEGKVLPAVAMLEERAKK
Put plainly: condition: 0.1, 1.0, 10, and 20 μg/ml coated; 10% human serum; ELISA; His-tag recombinant proteins or BSA (0.1, 1.0, 10, and 20 μg/ml, 100 μl) immobilized on the 96-well plate overnight at 4°C; 10% human serum added, 37°C for 1 h; bound FH detected with anti-FH monoclonal antibody, OD450; only the target purified.

The chains behind the UniProt entries cited, without tags or fusion partners. Residues count along the entry.
UniProt P0A9P0: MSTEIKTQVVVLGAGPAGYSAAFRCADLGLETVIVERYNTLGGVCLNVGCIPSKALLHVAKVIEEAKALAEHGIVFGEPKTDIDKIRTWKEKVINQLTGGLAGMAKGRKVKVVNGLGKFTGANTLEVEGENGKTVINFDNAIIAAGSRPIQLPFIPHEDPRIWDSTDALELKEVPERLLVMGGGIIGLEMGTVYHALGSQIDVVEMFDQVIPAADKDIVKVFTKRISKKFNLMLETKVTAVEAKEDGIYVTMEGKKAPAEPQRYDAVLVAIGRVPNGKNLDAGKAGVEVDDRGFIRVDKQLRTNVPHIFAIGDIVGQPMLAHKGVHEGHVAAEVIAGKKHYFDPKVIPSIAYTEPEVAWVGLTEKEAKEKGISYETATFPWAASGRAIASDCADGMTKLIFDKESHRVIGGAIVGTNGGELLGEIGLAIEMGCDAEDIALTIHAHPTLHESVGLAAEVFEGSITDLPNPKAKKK
UniProt P08603, residues 19-1231: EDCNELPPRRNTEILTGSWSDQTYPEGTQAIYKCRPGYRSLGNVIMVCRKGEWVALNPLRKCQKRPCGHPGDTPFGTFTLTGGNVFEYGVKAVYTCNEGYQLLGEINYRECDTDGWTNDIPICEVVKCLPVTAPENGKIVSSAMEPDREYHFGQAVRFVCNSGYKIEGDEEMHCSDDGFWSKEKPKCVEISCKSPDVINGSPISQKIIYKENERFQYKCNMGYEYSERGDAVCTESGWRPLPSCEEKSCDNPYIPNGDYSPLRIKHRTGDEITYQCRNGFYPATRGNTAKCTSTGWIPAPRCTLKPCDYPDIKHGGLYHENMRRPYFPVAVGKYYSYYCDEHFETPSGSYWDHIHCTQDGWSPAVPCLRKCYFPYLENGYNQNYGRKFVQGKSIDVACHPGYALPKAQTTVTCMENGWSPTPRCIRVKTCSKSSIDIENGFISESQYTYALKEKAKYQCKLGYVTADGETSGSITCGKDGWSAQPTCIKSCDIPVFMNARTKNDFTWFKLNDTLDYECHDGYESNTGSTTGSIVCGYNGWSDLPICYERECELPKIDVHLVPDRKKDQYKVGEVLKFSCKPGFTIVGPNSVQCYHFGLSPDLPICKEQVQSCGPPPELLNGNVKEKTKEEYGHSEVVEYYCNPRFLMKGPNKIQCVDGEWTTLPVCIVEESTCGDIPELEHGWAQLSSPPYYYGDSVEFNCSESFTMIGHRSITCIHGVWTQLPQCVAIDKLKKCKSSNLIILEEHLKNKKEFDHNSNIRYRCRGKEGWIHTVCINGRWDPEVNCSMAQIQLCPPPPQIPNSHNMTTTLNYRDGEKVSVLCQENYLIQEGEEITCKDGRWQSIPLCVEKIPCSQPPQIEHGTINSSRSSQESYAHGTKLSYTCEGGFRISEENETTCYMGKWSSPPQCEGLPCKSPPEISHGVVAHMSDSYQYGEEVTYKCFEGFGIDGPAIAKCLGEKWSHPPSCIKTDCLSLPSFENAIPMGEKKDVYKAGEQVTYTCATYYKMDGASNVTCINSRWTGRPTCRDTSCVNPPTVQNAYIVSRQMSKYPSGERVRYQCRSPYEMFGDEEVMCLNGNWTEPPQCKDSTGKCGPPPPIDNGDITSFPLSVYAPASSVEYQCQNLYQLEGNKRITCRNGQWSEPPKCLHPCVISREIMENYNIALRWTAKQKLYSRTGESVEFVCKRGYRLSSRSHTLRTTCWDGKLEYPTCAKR

Test [2] deals with T2, His-tag recombinant phosphoenolpyruvate synthase (PpsA) (E. coli ExPEC strain RS218) (UniProt P23538).
T2 sequence: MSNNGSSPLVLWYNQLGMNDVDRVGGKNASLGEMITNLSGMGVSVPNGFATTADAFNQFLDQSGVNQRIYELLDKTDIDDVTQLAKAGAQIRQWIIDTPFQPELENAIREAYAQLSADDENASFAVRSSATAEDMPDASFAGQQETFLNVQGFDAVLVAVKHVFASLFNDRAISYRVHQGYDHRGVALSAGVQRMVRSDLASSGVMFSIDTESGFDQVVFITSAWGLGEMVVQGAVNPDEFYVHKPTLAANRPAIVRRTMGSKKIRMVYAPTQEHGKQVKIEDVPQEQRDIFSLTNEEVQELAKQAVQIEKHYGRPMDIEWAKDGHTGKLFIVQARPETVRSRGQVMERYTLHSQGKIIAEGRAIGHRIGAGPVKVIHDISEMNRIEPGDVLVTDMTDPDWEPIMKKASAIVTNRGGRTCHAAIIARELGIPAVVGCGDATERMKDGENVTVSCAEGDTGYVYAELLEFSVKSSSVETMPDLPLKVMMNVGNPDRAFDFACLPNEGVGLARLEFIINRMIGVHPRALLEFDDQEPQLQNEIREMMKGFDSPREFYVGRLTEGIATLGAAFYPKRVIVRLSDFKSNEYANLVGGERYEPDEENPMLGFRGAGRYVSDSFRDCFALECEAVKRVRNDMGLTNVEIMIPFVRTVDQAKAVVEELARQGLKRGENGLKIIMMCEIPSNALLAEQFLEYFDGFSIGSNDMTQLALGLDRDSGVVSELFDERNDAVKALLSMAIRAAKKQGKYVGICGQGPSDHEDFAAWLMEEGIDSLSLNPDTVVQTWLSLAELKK
Description: ELISA; His-tag recombinant proteins or BSA (0.1, 1.0, 10, and 20 μg/ml, 100 μl) immobilized on the 96-well plate overnight at 4°C; 10% human serum added, 37°C for 1 h; bound FH detected with anti-FH monoclonal antibody, OD450; only the target purified. In general terms: In an ELISA, binding on a coated surface is turned into a signal by an enzyme label.

Test [3] concerns the target His-tag recombinant dihydrolipoamide dehydrogenase (LpdA) (E. coli ExPEC strain RS218) (UniProt P0A9P0). The description is as above.
For test [4], the target named is T3, His-tag recombinant L-lactate dehydrogenase (LDH) (E. coli ExPEC strain RS218) (UniProt P33232).
T3 sequence: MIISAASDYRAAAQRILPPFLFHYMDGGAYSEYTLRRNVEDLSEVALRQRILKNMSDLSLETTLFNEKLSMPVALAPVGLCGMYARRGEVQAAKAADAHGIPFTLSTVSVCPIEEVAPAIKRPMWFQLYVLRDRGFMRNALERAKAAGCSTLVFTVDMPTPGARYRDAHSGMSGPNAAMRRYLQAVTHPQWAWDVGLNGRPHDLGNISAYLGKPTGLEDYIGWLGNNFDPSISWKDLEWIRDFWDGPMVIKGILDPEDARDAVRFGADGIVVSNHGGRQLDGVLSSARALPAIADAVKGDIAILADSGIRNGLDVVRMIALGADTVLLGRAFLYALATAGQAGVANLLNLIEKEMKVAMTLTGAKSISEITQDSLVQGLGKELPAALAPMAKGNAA
Described as above.

Test [5] concerns the target T4, His-tag recombinant fumarate reductase flavoprotein subunit (FrdA) (E. coli ExPEC strain RS218) (UniProt P00363).
T4 sequence: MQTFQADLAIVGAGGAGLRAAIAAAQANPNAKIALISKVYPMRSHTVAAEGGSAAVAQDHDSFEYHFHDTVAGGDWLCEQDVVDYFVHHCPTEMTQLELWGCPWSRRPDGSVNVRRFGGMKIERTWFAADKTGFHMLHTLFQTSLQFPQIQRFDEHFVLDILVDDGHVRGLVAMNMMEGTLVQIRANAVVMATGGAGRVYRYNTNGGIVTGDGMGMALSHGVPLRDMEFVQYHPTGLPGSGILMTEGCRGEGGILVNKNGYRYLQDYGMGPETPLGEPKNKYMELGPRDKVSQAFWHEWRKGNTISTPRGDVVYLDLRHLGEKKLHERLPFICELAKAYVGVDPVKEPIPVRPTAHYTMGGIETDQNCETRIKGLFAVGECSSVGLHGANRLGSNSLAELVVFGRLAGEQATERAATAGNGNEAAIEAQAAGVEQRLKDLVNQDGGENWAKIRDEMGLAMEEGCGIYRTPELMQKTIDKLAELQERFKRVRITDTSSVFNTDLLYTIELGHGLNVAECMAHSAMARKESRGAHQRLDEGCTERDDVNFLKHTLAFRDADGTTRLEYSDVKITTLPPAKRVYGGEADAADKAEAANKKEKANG
The description is as above.

For test [6], the target named is T5, His-tag recombinant fructose-bisphosphate aldolase (FbaA) (E. coli ExPEC strain RS218) (UniProt P0AB71).
T5 sequence: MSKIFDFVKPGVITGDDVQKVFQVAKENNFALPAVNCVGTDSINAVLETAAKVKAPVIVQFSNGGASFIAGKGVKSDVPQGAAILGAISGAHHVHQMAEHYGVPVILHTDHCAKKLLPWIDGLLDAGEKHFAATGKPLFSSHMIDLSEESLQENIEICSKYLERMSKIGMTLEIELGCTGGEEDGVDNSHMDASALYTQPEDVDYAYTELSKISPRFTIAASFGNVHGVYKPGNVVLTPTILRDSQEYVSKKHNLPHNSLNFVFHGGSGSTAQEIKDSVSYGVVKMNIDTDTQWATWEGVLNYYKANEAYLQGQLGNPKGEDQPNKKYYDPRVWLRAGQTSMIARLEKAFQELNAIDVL
Described as above.

For test [7], the target named is T6, GST-fusion protein of fumarate reductase flavoprotein subunit (FrdA) (E. coli ExPEC strain RS218) (UniProt P00363).
T6 sequence: T4 sequence
Description: pull-down; GST tag or GST-fusion protein on glutathione magnetic beads, washed with PBST, incubated with 10% human serum at 37°C for 1 h; Western blotting with anti-FH and anti-GST antibodies; only the target purified. (In general: A western blot detects proteins with antibodies after separation by electrophoresis.)

Test [8] concerns the target T7, GST-fusion protein of L-lactate dehydrogenase (LDH) (E. coli ExPEC strain RS218) (UniProt P33232).
T7 sequence: T3 sequence
The test is described as above.

Test [9] has as its target T8, GST-fusion protein of phosphoenolpyruvate synthase (PpsA) (E. coli ExPEC strain RS218) (UniProt P23538).
T8 sequence: T2 sequence
The test is described as above.

The target in test [10] is GST-fusion protein of dihydrolipoamide dehydrogenase (LpdA) (E. coli ExPEC strain RS218) (UniProt P0A9P0). The description is as above.
Test [11] deals with T9, GST-fusion protein of phosphoglycerate kinase (Pgk) (E. coli ExPEC strain RS218) (UniProt P0A799).
T9 sequence: T1 sequence
Described as above.

The target in test [12] is T10, GST-fusion protein of fructose-bisphosphate aldolase (FbaA) (E. coli ExPEC strain RS218) (UniProt P0AB71).
T10 sequence: T5 sequence
The test is described as above.

For test [13], the target named is T6, GST-fusion protein of fumarate reductase flavoprotein subunit (FrdA) (E. coli ExPEC strain RS218). Put plainly: FH binding inhibition assay (whole-bacteria ELISA); glutathione magnetic beads coupled with GST-fusion proteins or GST tag (2 μg) co-incubated with ExPEC RS218 (1.0 × 10^7 CFUs) in 10% human serum at 37°C for 1 h; beads removed by a magnet; FH left on the bacteria detected by ELISA, OD450; only the target purified.

For test [14], the target named is T7, GST-fusion protein of L-lactate dehydrogenase (LDH) (E. coli ExPEC strain RS218). Described as above.
Test [15] concerns the target T8, GST-fusion protein of phosphoenolpyruvate synthase (PpsA) (E. coli ExPEC strain RS218). The test is described as above.
Test [16] deals with GST-fusion protein of dihydrolipoamide dehydrogenase (LpdA) (E. coli ExPEC strain RS218) (UniProt P0A9P0). The test is described as above.
For test [17], the target named is T10, GST-fusion protein of fructose-bisphosphate aldolase (FbaA) (E. coli ExPEC strain RS218). Described as above.

No constants are given. Whether binding was seen depends on the method and setting. For some assays here: In cells and extracts the contact can be indirect. Some entries that bind do so weakly or less than the wild type. For some assays here: Sequences can lack the tags named with a protein.

Results on one substance are retold here after PMC7868385.

Regarding “Factor H in human serum (from UniProt P08603 19-1231)”, the binding entry is recorded as “no binding” in test [1]; “binds” in test [2]; “binds” in [3]; “binds” in test [4]; “binds” in test [5]; “binds” in [6]. Also, the binding result in test [7] was “binds”; in test [8] it was “binds”; in test [9], “binds”; in test [10] it was “binds”; in test [11], “no binding (tested: 10% human serum)”; in [12], “binds”. Moreover, the binding result in [13], in test [14], in test [15], in test [16] and in [17] was “binds” in each case.
